Measurements taken from US20250171459A1, “2-METHYL-4',5'-DIHYDROSPIRO[PIPERIDINE-4,7'-THIENO[2,3-C]PYRAN] DERIVATIVES AS INHIBITORS OF APOL1 AND METHODS OF USING SAME” (Vertex Pharmaceuticals Incorporated, priority 2022, published 2025).

By UniProt entry, the sequences of proteins in these tests, tags left out.
UniProt O14791, whole entry S342G/I384M: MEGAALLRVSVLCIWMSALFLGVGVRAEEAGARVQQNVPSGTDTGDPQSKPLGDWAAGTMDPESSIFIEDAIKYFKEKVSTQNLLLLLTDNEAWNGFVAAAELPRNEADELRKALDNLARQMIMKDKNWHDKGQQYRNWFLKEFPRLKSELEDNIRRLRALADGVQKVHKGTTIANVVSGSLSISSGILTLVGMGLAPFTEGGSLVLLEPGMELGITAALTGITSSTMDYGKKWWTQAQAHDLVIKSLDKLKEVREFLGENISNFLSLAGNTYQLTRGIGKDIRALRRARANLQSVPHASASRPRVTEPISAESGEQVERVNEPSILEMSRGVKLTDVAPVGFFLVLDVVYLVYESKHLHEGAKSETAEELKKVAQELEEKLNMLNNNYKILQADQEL

Target: APOL1 (Homo sapiens, UniProt O14791)
Assay: MultiTox-Fluor Multiplex Cytotoxicity Assay in tet-inducible APOL1 T-REx-HEK293 cells (cell rescue, ratio of dead to live cells)
Settings: read-out: IP50 (i.e., IC50 for cell proliferation); tet-inducible transgenic APOL1 T-REx-HEK293 cell lines, 50 ng/mL tet, 24 hours

CNS(=O)(=O)CCn1cc(CN2CCC3(CC2)OCC(C)c2sc(Cl)cc23)cn1 (stereo not shown)
IC50: 100 to 500 nM

CCc1cc2c(s1)CCOC21CCN(Cc2ccc(NS(=O)(=O)CCCOC)cc2)CC1
IC50: 100 to 500 nM

Cc1cc2c(s1)[C@]1(CCN(Cc3cnn(CCS(C)(=O)=O)c3)[C@H](C)C1)OCC2
IC50: 100 to 500 nM

COc1cnc(CN2CC[C@]3(C[C@@H]2C)OCCc2cc(Cl)sc23)cn1
IC50: 100 to 500 nM

CCC1Cc2sc(Cl)cc2C2(CCN(Cc3cnn(C)c3)[C@@H](C)C2)O1 (stereo partly shown) [Compound 533]
IC50: 100 to 500 nM

C[C@H]1C[C@@]2(CCN1Cc1ccc(O)nc1)OCCc1c2sc(Cl)c1CO
IC50: < 100 nM

CCc1ncc(CN2CC[C@]3(C[C@@H]2C)OC[C@H](O)c2cc(Cl)sc23)cn1
IC50: 100 to 500 nM

C[C@H]1C[C@@]2(CCN1Cc1ccc(S(C)(=O)=O)cc1)OCCc1c2sc(Cl)c1CO
IC50: 100 to 500 nM

CCc1cc2c(s1)CCO[C@@]21CCN(Cc2cn(C(C)c3nncn3CCCOC)nn2)[C@@H](C)C1 (stereo partly shown)
IC50: 100 to 500 nM

C[C@H]1C[C@@]2(CCN1Cc1ccc(OCC(=O)N3CCOCC3)cc1)OCCc1c2sc(Cl)c1CO
IC50: < 100 nM

Structures were worked out from names or drawings and are uncertain.
